Data on 77 substances can be found in the supplement of paper PMC5949888.

Most values lie at the floor of the assay. Slopes are relative: functional sequences can read slightly below zero. Where only a bound is given, the exact number is not on record here.

In this data set the test system is Saccharomyces cerevisiae PS128 hsf1 delta, HSF1(1-493) fusion. In words: growth estimate (transactivation domain function in HSF1 fusion, heat-shock survival) (a.u. (slope of normalised read count over time)); higher = stronger growth at 37°C, i.e. more transactivation activity. Conditions: library: random library. On the procedure: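 Random 60-nt DNA library encoding peptides of up to 20 aa, fused to the C-terminus of yeast HSF1 residues 1-493 (C-terminal TAD deleted) and expressed from the native HSF1 promoter on a CEN plasmid in hsf1-deleted S. cerevisiae PS128. Cells were selected at 37°C on -trp 5-FOA plates for 0, 2, 4, 6 and 8 days and amplicons were sequenced. Growth estimate is the slope of a robust linear fit of total-sum-normalised read counts (normalised to the first time point) over time, using at least 2 replicates. Sequences are classed functional (TAD activity) above a threshold of -0.13, set from stop-codon control sequences.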
For MIERIGGNEGLQVIKLVYDG, the growth estimate was less than -0.25.

In the case of SVHCHCDLLGVVHHGFNGRL, the growth estimate is less than -0.25. As to LHRTNLWYDPYSPVQGYYLH, the growth estimate is less than -0.25. As for TVCPEVGQGREVGLATIGHL, the figure is less than -0.25; as for TYLQGQLNSM, less than -0.25; as for VALSEYARLVNSAKFDPLGG, less than -0.25. As for GREILSQVRRYPITWPWGRR, the figure is less than -0.25; as for WDRGFPKREEKKLL, less than -0.25. Take PYSECPQLCFGLAAITQTWA: the growth estimate is less than -0.25. Take ASMGIESIFVNGRSFFSGQI: the growth estimate is less than -0.25. TRTYGLRAVDQRTAL: the growth estimate is less than -0.25. SIVNLRLRIAPAAHRLHSAE: the growth estimate was less than -0.25. As for INP, the growth estimate is less than -0.25. In the case of KHNSM, the growth estimate is less than -0.25. As for PHFVIMGHRARGSSQYKAQG, the figure is less than -0.25; as for NRRLPESLS, less than -0.25; as for PDTARL, less than -0.25. With RLARVES, the growth estimate was less than -0.25. Regarding EQG, the growth estimate was less than -0.25. In the case of AFQRVLHVERIRIKMHHAP it was less than -0.25. In the case of RVDSSTEARSVYRLSLANTF it was less than -0.25; in that of SGV, less than -0.25. In the case of GSLCLTARTGPTPDPTPSGD it was less than -0.25; in that of HLRVMSVE, less than -0.25.

With CWDKRNGQLRVDQPYYLG, the growth estimate was less than -0.25. In the case of LVNVTPRAL it was less than -0.25; in that of NGQTKLTCYQPVRPVCCFPL, less than -0.25. As for NLAVGWRSSHPGY, the figure is less than -0.25; as for GTCGSH, less than -0.25; as for VLTR, less than -0.25.

With PRPSFYGTSMFKSLS, the growth estimate was less than -0.25. Take SDFLDNLRR: the growth estimate is less than -0.25. As for DVFPLGGRDNRSSLASR, the growth estimate was less than -0.25. With PQGMHHFQGANRPPRVEVLA, the growth estimate is less than -0.25.

For the substance IYP, the growth estimate was less than -0.25. As for KKGGAPSSCVDGEIGHPAAP, the figure is less than -0.25. On to SILGPRVMTFRMGLRHIGVL, for which the growth estimate is less than -0.25.

As to WERIG, the growth estimate was -0.245. As for TVRVDHDHSKEKRGISLSDR, the growth estimate is less than -0.25. In the case of LYDPGTTGRACQQHHVEASH it was less than -0.25; in that of TKIAAHVFPDMFRGVGDARL, less than -0.25.

Turning to TDHLRALATLNECFMR, the growth estimate was less than -0.25. As for RECWVLLKEWGVLRDRA, the figure is less than -0.25; as for QRGAWA, less than -0.25; as for MASLV, less than -0.25. As for VPPQGKKEL, the figure is less than -0.25; as for DILRLNNGALVSGGDFLLSG, -0.246.

QMGQASSIILAGCYSALRGV: the growth estimate was less than -0.25.

Regarding FAVSDVLCGHQARSRGIHSV, the growth estimate was less than -0.25. As for IGLH, the figure is less than -0.25; as for CYGYDGSGHEPKWPSETGLS, less than -0.25. As to KGHHLCRAVYGTSSVAGVEL, the growth estimate was less than -0.25.

For RYLRTV, the growth estimate is less than -0.25.

In the case of GVQPRGALTDSLSELFGVGP, the growth estimate is less than -0.25. In the case of GED it was less than -0.25; in that of LWPGI, less than -0.25. Take DVCDIRNAWNAGVGWIGATC: the growth estimate was less than -0.25.

In the case of WAQQVNELSLCSNFSRVLDV, the growth estimate is -0.248.

With DRGSTGRTNSIDRFPRSKRV, the growth estimate is -0.244. In the case of MHGAQGSIISYILITLATLI it was -0.25. With ACAVRCSPVLC, the growth estimate is less than -0.25. In the case of APKVN it was less than -0.25. As for LYLDRFELY, the figure is -0.239; as for HSLTPAVPPRLPR, less than -0.25; as for RDWVKGMARCGHAWAGYLKG, less than -0.25. Consider ADVVRKRQGRLQDLFLREWT, for which the growth estimate was less than -0.25. In the case of DEAGRPNVNSEAQFCSEGCQ it was less than -0.25; in that of KLQLHMFAGISLGRI, less than -0.25; in that of ARRNQ, less than -0.25. In the case of CGNRLNPGFYGSASHARHIE it was less than -0.25; in that of SSGLYWIPLRVFSRGGVGFR, less than -0.25; in that of TPLLRGLRKSARRECQ, less than -0.25.

In the case of LMSFWRTLIVIV, the growth estimate was less than -0.25.

For SYRIGTVCSIFLAICNSARN, the growth estimate was less than -0.25.

On to KDNKRVFGL, for which the growth estimate is -0.23. As for NNTGRIAIGIP, the figure is less than -0.25. As for KEKRQGSKLEAAWYSRPRYR, the figure is less than -0.25.
